Data as given in PubChem BioAssay AID1224830 (NIAID, 2016).
Test: 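Host factors that control LPS-induced TNF expression in human macrophages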 (primary screen). Cell system: human THP-1 monocytic leukaemia cells, TNF dual-luciferase reporter clone, PMA-differentiated to macrophage-like cells. Reagent: siRNA pool against human genes, 50 nM. Time to read-out: LPS for 4 h, given about 3 days after siRNA transfection. Conditions: bacterial LPS (TLR4 ligand), 10 ng/ml. Measured: 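Ratio of firefly to renilla light, scaled to the plate median and expressed as a robust z-score per replicate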. Reading the numbers: TNF reporter robust z-score: higher = stronger TNF reporter response to LPS. Active means: 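a well is active when its z-score exceeds 2.8 or falls below -1.5; control wells carry no call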.
Here is one part, drawn at random, of about 18,000 deposited reagents. About 2,900 of them (16%) were called active. 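Calls are made per well; low scores hint the gene aids the LPS response, high scores that it dampens it.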 Repeated entries: four replicate wells of each siRNA pool.

Depletion of NLRP2 resulted in: TNF reporter robust z-score -0.24; inactive.
Depletion of NLRP2 resulted in: TNF reporter robust z-score 1.14; inactive.
NLRP2 showed TNF reporter robust z-score -0.92; inactive.
NLRP2 gave TNF reporter robust z-score 0.21; inactive.
Silencing of ADAM29 gave: TNF reporter robust z-score -0.31; inactive.
After knock-down of ADAM29, the record shows TNF reporter robust z-score -0.37; inactive.
ADAM29 gave TNF reporter robust z-score 1.6; inactive.
ADAM29 showed TNF reporter robust z-score -0.19; inactive.
Depletion of LRTM1 came out at: TNF reporter robust z-score -0.84; inactive.
Against LRTM1 the deposit lists TNF reporter robust z-score -0.47; inactive.
After knock-down of LRTM1, the record shows TNF reporter robust z-score -0.82; inactive.
LRTM1 gave TNF reporter robust z-score -0.69; inactive.
Knock-down of SACK1A resulted in: TNF reporter robust z-score -0.74; inactive.
After knock-down of SACK1A, the record shows TNF reporter robust z-score -0.49; inactive.
Depletion of SACK1A came out at: TNF reporter robust z-score -0.15; inactive.
After knock-down of SACK1A the results were TNF reporter robust z-score -0.26; inactive.
Silencing of RUSF1 came out at: TNF reporter robust z-score 0.23; inactive.
With knock-down of RUSF1 the results were TNF reporter robust z-score 1.72; inactive.
Knock-down of RUSF1 came out at: TNF reporter robust z-score -0.05; inactive.
Against RUSF1, the entry reads TNF reporter robust z-score 0.29; inactive.
ZMYM2 gave TNF reporter robust z-score -0.22; inactive.
For ZMYM2 the deposit lists TNF reporter robust z-score 0.77; inactive.
Depletion of ZMYM2 resulted in: TNF reporter robust z-score -0.07; inactive.
With knock-down of ZMYM2, the record shows TNF reporter robust z-score 2.49; inactive.
Silencing of DYSF resulted in: TNF reporter robust z-score -0.86; inactive.
Knock-down of DYSF resulted in: TNF reporter robust z-score -0.63; inactive.
Depletion of DYSF gave: TNF reporter robust z-score -0.93; inactive.
With knock-down of DYSF, the screen gave TNF reporter robust z-score -0.64; inactive.
SDHAF4 showed TNF reporter robust z-score 0.53; inactive.
Knock-down of SDHAF4 gave: TNF reporter robust z-score -0.59; inactive.
With knock-down of SDHAF4, the record shows TNF reporter robust z-score -0.77; inactive.
After knock-down of SDHAF4 the results were TNF reporter robust z-score -1.02; inactive.
SNX5 scored TNF reporter robust z-score -0.17; inactive.
After knock-down of SNX5, the record shows TNF reporter robust z-score 0.03; inactive.
After knock-down of SNX5 the results were TNF reporter robust z-score -0.89; inactive.
STAMBPL1 showed TNF reporter robust z-score -0.12; inactive.
After knock-down of STAMBPL1, the screen gave TNF reporter robust z-score 0.05; inactive.
With knock-down of STAMBPL1, the record shows TNF reporter robust z-score 0.34; inactive.
STAMBPL1 scored TNF reporter robust z-score 1.09; inactive.
SFXN2 scored TNF reporter robust z-score -1.06; inactive.
After knock-down of SFXN2, the record shows TNF reporter robust z-score 0.05; inactive.
Depletion of SFXN2 resulted in: TNF reporter robust z-score -0.13; inactive.
Silencing of SFXN2 resulted in: TNF reporter robust z-score 0.1; inactive.
With knock-down of OGFR, the screen gave TNF reporter robust z-score -0.35; inactive.
OGFR scored TNF reporter robust z-score 0.09; inactive.
For OGFR, the entry reads TNF reporter robust z-score -0.36; inactive.
For OGFR, the entry reads TNF reporter robust z-score 1.08; inactive.

7 entries already listed, ordered by “TNF reporter robust z-score”, highest first:
SACK1A — TNF reporter robust z-score = -0.15; outcome = inactive
SACK1A — TNF reporter robust z-score = -0.26; outcome = inactive
LRTM1 — TNF reporter robust z-score = -0.47; outcome = inactive
SACK1A — TNF reporter robust z-score = -0.49; outcome = inactive
LRTM1 — TNF reporter robust z-score = -0.69; outcome = inactive
SACK1A — TNF reporter robust z-score = -0.74; outcome = inactive
LRTM1 — TNF reporter robust z-score = -0.82; outcome = inactive
